Measurements as given in the supplement of paper PMC12819154, “High-throughput peptide-centric local stability assay extends protein–ligand identification to membrane proteins, tissues and bacteria” (Nature Structural & Molecular Biology, 2025).
This is one part of the list. Most values lie at the level of the controls, where differences are scatter.

Chains of the proteins cited; added tags and fusions are not shown. Lines headed by an entry give the natural chain unless they say otherwise; changes in a name come on top.
UniProt P75791: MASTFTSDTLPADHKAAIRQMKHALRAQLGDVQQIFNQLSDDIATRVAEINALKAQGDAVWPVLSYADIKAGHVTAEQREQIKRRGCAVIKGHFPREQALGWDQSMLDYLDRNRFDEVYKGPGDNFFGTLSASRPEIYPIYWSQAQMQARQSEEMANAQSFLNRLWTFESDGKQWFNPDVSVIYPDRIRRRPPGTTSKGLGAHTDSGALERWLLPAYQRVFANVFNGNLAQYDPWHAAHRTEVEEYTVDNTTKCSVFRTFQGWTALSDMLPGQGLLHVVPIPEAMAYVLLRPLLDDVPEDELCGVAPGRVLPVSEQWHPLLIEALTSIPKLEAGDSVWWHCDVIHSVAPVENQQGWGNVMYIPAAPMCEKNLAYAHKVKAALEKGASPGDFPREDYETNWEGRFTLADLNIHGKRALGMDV
UniProt P52096: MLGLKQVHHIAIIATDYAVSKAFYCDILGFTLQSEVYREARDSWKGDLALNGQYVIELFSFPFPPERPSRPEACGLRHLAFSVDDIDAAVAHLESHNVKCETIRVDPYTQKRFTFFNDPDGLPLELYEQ
UniProt P71242: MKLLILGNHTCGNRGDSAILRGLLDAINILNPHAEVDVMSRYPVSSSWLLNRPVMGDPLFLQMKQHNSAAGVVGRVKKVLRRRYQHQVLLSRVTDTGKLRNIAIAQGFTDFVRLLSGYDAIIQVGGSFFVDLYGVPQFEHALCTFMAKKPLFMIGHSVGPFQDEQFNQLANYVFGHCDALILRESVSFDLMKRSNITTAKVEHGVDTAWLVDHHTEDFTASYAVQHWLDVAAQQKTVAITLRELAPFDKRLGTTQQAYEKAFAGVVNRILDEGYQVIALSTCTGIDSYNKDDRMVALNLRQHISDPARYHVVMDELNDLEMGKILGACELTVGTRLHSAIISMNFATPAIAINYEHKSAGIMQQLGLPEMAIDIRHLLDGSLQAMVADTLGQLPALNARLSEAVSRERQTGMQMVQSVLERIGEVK
UniProt P75694: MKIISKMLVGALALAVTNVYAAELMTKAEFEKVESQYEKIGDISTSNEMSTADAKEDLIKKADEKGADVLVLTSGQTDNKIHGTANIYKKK
UniProt P75821: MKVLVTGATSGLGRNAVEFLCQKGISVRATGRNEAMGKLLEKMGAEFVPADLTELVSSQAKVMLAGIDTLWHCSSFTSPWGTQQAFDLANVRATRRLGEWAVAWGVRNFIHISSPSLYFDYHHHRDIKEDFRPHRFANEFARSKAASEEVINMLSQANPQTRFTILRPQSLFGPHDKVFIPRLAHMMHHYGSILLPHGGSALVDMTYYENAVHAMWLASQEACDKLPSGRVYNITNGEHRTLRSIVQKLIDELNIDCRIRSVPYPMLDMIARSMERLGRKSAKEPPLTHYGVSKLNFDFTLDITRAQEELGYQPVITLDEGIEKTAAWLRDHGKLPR
UniProt P56258: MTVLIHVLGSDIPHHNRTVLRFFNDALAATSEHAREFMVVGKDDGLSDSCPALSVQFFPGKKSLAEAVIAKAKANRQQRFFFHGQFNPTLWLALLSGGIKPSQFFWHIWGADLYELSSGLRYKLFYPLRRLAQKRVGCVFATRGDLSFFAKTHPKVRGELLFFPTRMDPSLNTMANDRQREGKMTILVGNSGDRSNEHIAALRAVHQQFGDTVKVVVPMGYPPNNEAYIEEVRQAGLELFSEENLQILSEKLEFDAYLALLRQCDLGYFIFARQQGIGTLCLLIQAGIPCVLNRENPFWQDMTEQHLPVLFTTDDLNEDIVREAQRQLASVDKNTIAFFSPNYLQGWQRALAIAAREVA
UniProt P46888: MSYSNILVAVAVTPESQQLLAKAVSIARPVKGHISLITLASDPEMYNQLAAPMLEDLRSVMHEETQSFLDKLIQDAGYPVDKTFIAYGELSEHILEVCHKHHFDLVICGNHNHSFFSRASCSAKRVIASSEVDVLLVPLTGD
UniProt P75818: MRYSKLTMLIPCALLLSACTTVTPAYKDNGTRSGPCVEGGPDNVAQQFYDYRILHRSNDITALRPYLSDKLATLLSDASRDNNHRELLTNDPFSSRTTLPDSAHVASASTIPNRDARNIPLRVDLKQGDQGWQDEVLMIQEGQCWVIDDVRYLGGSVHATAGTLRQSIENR
UniProt P46854: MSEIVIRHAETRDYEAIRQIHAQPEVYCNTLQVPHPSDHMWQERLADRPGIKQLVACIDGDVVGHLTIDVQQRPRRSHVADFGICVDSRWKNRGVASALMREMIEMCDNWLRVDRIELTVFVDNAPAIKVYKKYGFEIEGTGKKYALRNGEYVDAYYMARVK
UniProt P75796: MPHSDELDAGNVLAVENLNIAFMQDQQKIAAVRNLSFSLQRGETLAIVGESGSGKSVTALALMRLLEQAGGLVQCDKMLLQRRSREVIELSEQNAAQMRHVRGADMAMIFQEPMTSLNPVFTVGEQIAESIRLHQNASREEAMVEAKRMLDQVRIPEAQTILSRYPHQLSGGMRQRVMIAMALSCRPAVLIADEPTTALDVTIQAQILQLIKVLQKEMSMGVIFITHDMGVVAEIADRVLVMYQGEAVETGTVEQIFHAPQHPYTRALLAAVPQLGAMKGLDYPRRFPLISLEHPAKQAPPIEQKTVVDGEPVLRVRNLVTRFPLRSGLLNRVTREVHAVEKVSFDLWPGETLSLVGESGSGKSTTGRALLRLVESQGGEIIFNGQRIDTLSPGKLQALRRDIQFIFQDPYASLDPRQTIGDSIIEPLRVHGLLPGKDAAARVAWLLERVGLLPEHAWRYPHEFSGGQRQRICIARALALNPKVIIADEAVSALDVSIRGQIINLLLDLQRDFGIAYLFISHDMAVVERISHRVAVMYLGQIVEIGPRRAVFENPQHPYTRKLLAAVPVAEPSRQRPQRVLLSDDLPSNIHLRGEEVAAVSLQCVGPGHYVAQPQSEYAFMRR
UniProt P46859: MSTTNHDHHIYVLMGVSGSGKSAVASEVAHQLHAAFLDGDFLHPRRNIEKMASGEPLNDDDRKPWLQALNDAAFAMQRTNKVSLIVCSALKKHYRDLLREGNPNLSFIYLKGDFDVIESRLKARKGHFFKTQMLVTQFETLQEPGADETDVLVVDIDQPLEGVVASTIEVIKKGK

Compound: CC1(C)S[C@@H]2[C@H](NC(=O)[C@H](N)c3ccccc3)C(=O)N2[C@H]1C(=O)O [ampicillin]
Assay: log2 fold change of tryptic peptide abundance, ligand vs vehicle (limited proteolysis) (log2 ratio); higher = more trypsin-susceptible (destabilized)
Details: ligand concentration: 10 uM; sample: E. coli crude lysate

Row | Target | log2 fold change
1 | UniProt P75791 (peptide sequence: FTLADLNIHGKR, peptide start residue: 404) | -0.323
2 | UniProt P52096 (peptide sequence: HLAFSVDDIDAAVAHLESHNVK, peptide start residue: 78) | 0.73
3 | UniProt P71242 (peptide sequence: YQHQVLLSR, peptide start residue: 84) | 0.32
4 | UniProt P75694 (peptide sequence: IHGTANIYKKK, peptide start residue: 81) | 0.468
5 | UniProt P75821 (peptide sequence: NAVEFLCQK, peptide start residue: 15) | 0.164
6 | UniProt P56258 (peptide sequence: MTILVGNSGDR, peptide start residue: 184) | -0.417
7 | UniProt P46888 (peptide sequence: SVMHEETQSFLDK, peptide start residue: 59) | -0.085
8 | UniProt P75818 (peptide sequence: NIPLRVDLK, peptide start residue: 118) | -0.12
9 | UniProt P46854 (peptide sequence: LADRPGIK, peptide start residue: 45) | -0.296
10 | UniProt P75796 (peptide sequence: LHQNASREEAMVEAKR, peptide start residue: 133) | -0.448
11 | UniProt P46859 (peptide sequence: VSLIVCSALK, peptide start residue: 82) | 0.151

As entered above.
Entry for UniProt P46859 (peptide sequence: VSLIVCSALK, peptide start residue: 82) under log2 fold change: 0.151
Entry for UniProt P56258 (peptide sequence: MTILVGNSGDR, peptide start residue: 184) under log2 fold change: -0.417
